# Results from PubChem BioAssay (NCATS).
# “And” between values parts separate entries of the source, which are not always exact repeats. Equal values may be shown once. The list shows a part of the results. These are further read-outs of the screen, such as a control signal, another cell line or another target. No call is given for them. For some assays here: Compounds called inactive in the main read-out are mostly missing here. For some assays here: Potencies come from curve fits of mixed quality, noted in brackets.
# Columns and labels:
# [1] = qHTS for identification of novel therapeutic agents for treatment of microphthalmiaassociated transcription factor (MiT) renal cell carcinoma (RCC) (AID 1963991); settings: TFE3-RCC viability, CellTiter-Glo, 48 h
# Method in brief: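 UOK109/UOK124/UOK145 (TFE3 fusions, three partners); 500 cells/well; MIPE v4.0, 1912 cpds, 11 conc.; 48 h, 37 C; CellTiter-Glo, 15 min RT; lum. Norm.: DMSO 100%, empty 0%.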
# [2] = Nrf2 qHTS screen for inhibitors: Validation (AID 493153); settings: A549 ARE-Fluc reporter, 18-24 h; AC50: CellTiter-Fluor fluorescence read, measured here: cytotoxicity CellTiter-Fluor AC50; viability change: measured here: cytotoxicity max response
# Method in brief: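 A549 cells carrying ARE-firefly luciferase reporter, 5000 cells/well in 5% FBS OPTI-MEM, treated with compound over a concentration series for 18-24 h at 37 C. Luciferase luminescence gave Nrf2 activity; CellTiter-Fluor fluorescence gave viability.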
# [3] = S16 Schwann cell PMP22 intronic element beta-lactamase assay (AID 624044); settings: S16 rat Schwann cells, PMP22 element beta-lactamase FRET, 24 h
# Method in brief: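 Rat S16 Schwann cells with beta-Lac driven by a PMP22 intronic element, compound-treated 24 h at 37 °C. LiveBLAzer FRET B/G read: 460 nm normalized to potassium clavulanate vs DMSO; 535 nm FRET as viability; concentration-effect curves classified.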
# [4] = qHTS drug screen for cell cycle checkpoint inhibitors in PARPi-resistant BRCA-mutant ovarian cancer cell lines. (AID 1963452); settings: PEO1/OlaR viability, CellTiter-Glo luminescence, 96 h; measured here: PEO1 parental viability
# Method in brief: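 PEO1, PEO4 and PEO1/OlaR ovarian cancer cells, 600 per well, exposed 96 h at 37C to a dilution series. Viability read by CellTiter-Glo luminescence, normalized to DMSO and empty wells; activity summarized as Z-AUC.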
# [5] = qHTS assay for small molecule antagonists of peroxisome proliferator-activated receptor delta signaling (AID 588535); settings: HEK293T PPARd-UAS-bla, beta-lactamase FRET ratio, 18 h; 460 nm channel;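 further: cells co-treated with a PPAR-delta agonist as stimulator during compound exposure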
# Method in brief: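 Reporter: UAS-bla under PPAR-delta response element, HEK293T host. Medium: 2% charcoal/dextran FBS. Dosing: titration, 18 hrs, 37 C. Detection: CCF4, 2 hrs RT, 405 ex/460 and 530 em.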
# [6] = qHTS assay for small molecule antagonists of peroxisome proliferator-activated receptor gamma signaling (AID 588537); settings: HEK293 PPARg-UAS-bla, beta-lactamase ratio, antagonist mode; measured here: W460 blue channel
# Method in brief: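 We seeded GeneBLAzer HEK293 reporter cells at 3000 per well, allowed 6-6.5 h attachment at 37 C, then co-treated with test compound titrations and 50 nM rosiglitazone overnight (16 h). Inhibition was quantified from 460/530 nm emission ratios.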
# [7] = qHTS assay for small molecule antagonists of vitamin D receptor signaling (AID 588541); settings: HEK293T VDR-UAS-bla, beta-lactamase ratio, antagonist mode; measured here: W460 blue channel (cell viability)
# [8] = qHTS assay for small molecule agonists of retinoid X receptor alpha signaling (AID 588544); settings: HEK293T RXRa-UAS-bla, beta-lactamase reporter, 18 h; 530 nm emission
# [9] = qHTS assay for small molecule antagonists of retinoid X receptor alpha signaling (AID 588546); settings: HEK293T RXRa-UAS-bla, beta-lactamase ratio, antagonist mode; measured here: W530 green channel, cytotoxicity proxy;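 further: cells stimulated with 9-cis-retinoic acid as agonist; on the % scale 0 is the no-effect control and ±100 the full control effect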
# Method in brief: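 Beta-lactamase reporter inhibition, read as CCF4 fluorescence ratio (ex 405, em 460/530 nm) after 2 h at RT. HEK293T UAS-bla cells, 2500/well, were stimulated with 9-cis-RA at 500 or 100 nM final alongside test compound for 18 h at 37 C.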
# [10] = measured here: UOK124 cell viability
# [11] = measured here: UOK145 cell viability
smiles,measurement,setting,value
CC(C)N1[N]C(=C2C=c3cc(O)ccc3=N2)c2c(N)ncnc21,AC50,[1]; [10],"6620 nM [falling, partial curve]"
same,AC50,[1]; [11],"3720 nM [falling, partial curve]"
Nc1ccn([C@@H]2O[C@H](CO)[C@@H](O)C2O)c(=O)n1 (stereo partly specified),viability change,[2],4.82%
same,AC50,[3]; measured here: 460 nm blue channel,"3550 nM [falling, full curve, poor fit]"
same,AC50,[3]; measured here: 530 nm viability channel,"2820 nM [falling, full curve, poor fit]"
same,AC50,[4],"110 nM [falling, full curve]"
O=C1NC(=O)C(=Cc2ccc3nccc(-c4ccncc4)c3c2)S1,AC50,[1]; [10],"590 nM [falling, full curve]"
same,AC50,[1]; [11],"372 nM [falling, full curve]"
CS(=O)(=O)N1CCc2c(-c3cnc(N)nc3)nc(N3CCOCC3)nc21,AC50,[1]; [10],"662 nM [falling, full curve]"
same,AC50,[1]; [11],"469 nM [falling, full curve]"
Cc1cccc(C=NNc2cc(N3CCOCC3)nc(OCCc3ccccn3)n2)c1,AC50,[1]; [10],"743 nM [falling, full curve]"
same,AC50,[1]; [11],"7430 nM [falling, partial curve]"
CC(=O)O[C@]1(C(C)=O)CC[C@H]2[C@@H]3C[C@H](C)C4=CC(=O)CC[C@]4(C)[C@H]3CC[C@@]21C,max response,[5],145% and 154%
same,AC50,[6],"44700 nM [rising, partial curve]"
same,AC50,[7],"11.2 µM [rising, full curve, poor fit] and 5.01 µM [rising, full curve, poor fit]"
same,max response,[8],70.9% and 29.2%
same,max response,[9],62.2% and 25.7%
same,AC50,[4],"54.9 nM [falling, full curve, poor fit]"
CC=C1NC(=O)[C@H]2CSSCCC=C[C@H](CC(=O)N[C@H](C(C)C)C(=O)N2)OC(=O)[C@H](C(C)C)NC1=O,AC50,[1]; [10],"29.6 nM [falling, full curve]"
same,AC50,[1]; [11],"118 nM [falling, full curve]"
CO[C@H]1C=CC=C(C)C(=O)NC2=CC(=O)C(NCCN(C)C)=C(C[C@@H](C)C[C@H](OC)[C@@H](O)[C@@H](C)C=C(C)[C@@H]1OC(N)=O)C2=O,AC50,[1]; [10],"1320 nM [falling, full curve]"
same,AC50,[1]; [11],"1660 nM [falling, partial curve]"
Cc1c(CN2CCN(C(=O)C(C)C)CC2)sc2c(N3CCOCC3)nc(-c3cnc(N)nc3)nc12,AC50,[1]; [10],"264 nM [falling, full curve]"
same,AC50,[1]; [11],"166 nM [falling, full curve]"
CC(=O)N1CCN(c2ccc(OCc3nn(C)c(C)c3-c3cccc4c(CCCOc5cccc6ccccc56)c(C(=O)O)n(Cc5cccnc5)c34)cc2)CC1,AC50,[1]; [10],"4180 nM [falling, partial curve]"
same,AC50,[1]; [11],"5260 nM [falling, partial curve]"

# A second format for part of the listing above:
smiles	measurement	setting	value
Nc1ccn([C@@H]2O[C@H](CO)[C@@H](O)C2O)c(=O)n1 (stereo partly specified)	AC50	[3]; measured here: 460 nm blue channel	3550 nM [falling, full curve, poor fit]
same	AC50	[3]; measured here: 530 nm viability channel	2820 nM [falling, full curve, poor fit]
